# In all, about 33,000 sequences were measured (“E-score (-0.5 to 0.5)”: median about -0.0059, highest 2% from about 0.26 on). This is one part of the list.
# Molecular target: T1, Cin5 (UniProt P40917)
# T1 sequence: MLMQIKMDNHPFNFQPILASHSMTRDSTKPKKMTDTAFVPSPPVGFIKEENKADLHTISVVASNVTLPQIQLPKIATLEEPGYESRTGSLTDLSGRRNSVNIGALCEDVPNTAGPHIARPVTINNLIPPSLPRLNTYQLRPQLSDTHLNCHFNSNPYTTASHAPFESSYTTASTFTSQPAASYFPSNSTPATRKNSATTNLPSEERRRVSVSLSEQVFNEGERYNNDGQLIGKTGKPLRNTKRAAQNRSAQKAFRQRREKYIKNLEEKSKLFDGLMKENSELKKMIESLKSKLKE
# Test: PBM E-score (8-mer binding enrichment) (E-score (-0.5 to 0.5)); higher = stronger / more preferred TF binding
# Conditions: protein concentration: 100 nM; construct: GST-full length
# How it was run: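 Each ungapped eight-base word and its reverse complement, pooled, received an E-score from the Universal PBM Analysis Suite. Underlying scans, normalised with masliner, recorded fluorescent anti-GST bound to GST-tagged yeast transcription factors. These were applied at about 100-200 nM to universal all-10-mer Agilent arrays double-stranded by primer extension.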
row,Sequence,PBM E-score
1,ATGAAATA,0.18
2,GGGTAGAA,-0.112
3,GCCCTGAA,-0.0267
4,TGAACTCA,0.00043
5,CCTAAAGC,-0.108
6,AATCGCTA,-0.0414
7,CGAATCCG,-0.0137
8,CACGCTCC,-0.28
9,CAGATATA,0.119
10,ATTCGCGA,0.0972
11,CCCCCCCG,-0.447
12,AAAAGCCT,-0.319
13,ATAGTCAT,0.0402
14,ATTCAACA,0.102
15,GAAGTCAA,0.124
16,AGCCTTTC,-0.229
17,CCTTTAAC,-0.0107
18,AATCCTTA,-0.0597
19,ATACACTA,0.224
20,AGCCTCCC,-0.243
21,GCCCTCGC,-0.0926
22,GTGTATAA,-0.00672
23,ATGTGGCG,0.0709
24,CCCGGGCC,-0.278
25,AATAGGGT,0.122

row,Sequence,PBM E-score
1,CCGACGCC,-0.00092
2,CACACTCA,0.138
3,CCGACTGA,-0.165
4,AGATCGGA,0.157
5,CCTGATTA,0.252
6,AATTGTCC,0.0822
7,ACAGTACA,0.127
8,ACACAAAG,0.127
9,TCGAGCGA,0.105
10,CAAGTATG,0.128
11,CCGCACAC,-0.18
12,CAAATCAA,0.231
13,CCTTTTTC,0.0612
14,GTAGTTTA,0.131
15,GAATAGCA,0.0428
16,AGACAGTG,-0.0987
17,AGCACAGA,0.133
18,GAAATCTA,0.165
19,AGACTTTA,-0.168
20,AGGGAATG,-0.0715
21,ATGTCTGG,0.0414
22,CCTGTCGC,-0.167
23,AGAATTCT,0.104
24,CAAGGACG,-0.228
25,ACCTAACA,0.099

row,Sequence,PBM E-score
1,GCTGCACA,-0.145
2,ACTTGAGG,-0.114
3,AAAAAAAC,0.0551
4,ACCCCGTA,0.172
5,GAAACGAC,0.034
6,CCCCTGCG,-0.173
7,GACTGTGC,-0.276
8,CCGACCCA,-0.199
9,CGCCGGCA,-0.0945
10,ACGGGCCA,-0.034
11,CAAAGGCC,-0.227
12,GTGACAGA,-0.0519
13,ACTGAACG,-0.168
14,AACAGTAC,0.107
15,CTTGAGGC,-0.21
16,ATTGTACA,0.0322
17,TTATGCAA,0.186
18,AAGTACGC,-0.00407
19,ACGCTGGC,-0.146
20,ACGAGGAT,-0.124
21,AGTTCCGC,0.162
22,AGCGTCCT,-0.249
23,CTCCTTAC,-0.123
24,GTTTTTCA,0.00319
25,ACATTAAC,0.146

row,Sequence,PBM E-score
1,GCGGGCCC,-0.198
2,ATTCCCAA,0.166
3,CCCTCTTC,-0.33
4,ACTGCTCA,0.0833
5,AGATTCCG,0.226
6,GGTCCTTA,0.0773
7,ATGGGATA,0.0461
8,GAAAACCA,-0.0853
9,ATCGCATA,0.128
10,TGACTCAA,-0.0918
11,ATCCAAAT,0.123
12,ATTCAAGA,-0.0507
13,GACGAACA,-0.0658
14,CAAAAGGA,-0.0523
15,CGCACATA,-0.122
16,AGAGAGCT,-0.265
17,CCAGGCCG,-0.255
18,AGTTGGGG,0.125
19,GTCCTCAC,-0.088
20,ATAGGCCC,-0.229
21,AAGCAATA,0.192
22,AACGGCTA,-0.0303
23,CTCGTCTA,-0.132
24,AAGTACAC,0.0965
25,GGCAGAAA,0.246

row,Sequence,PBM E-score
1,CGCTAGTC,-0.344
2,ATGGAGTA,0.17
3,AGGAGAAC,-0.165
4,CGTTGTAC,-0.0451
5,ATCCAGCA,-0.0465
6,CCGCATAC,0.072
7,GGTCAGCA,0.179
8,GCGTATAC,-0.017
9,ATGTGCTC,0.136
10,ATCCCATG,0.0696
11,CAACGTCG,0.0109
12,GACGCGGA,-0.186
13,ATACACTC,0.0232
14,CTCAAGGC,-0.135
15,GTGAGGGA,-0.147
16,TAAGCACA,0.314
17,GTCCTCAA,-0.026
18,AATTCTGA,0.0664
19,CGGGTCCC,-0.337
20,GGTTTGGA,0.075
21,CATATTAA,0.275
22,ACAGCCGG,0.154
23,ACCAAGCA,0.0042
24,ACCGCCTA,-0.033
25,ACAGCACC,-0.189

row,Sequence,PBM E-score
1,AGTTATGC,0.199
2,CCATTTTC,0.108
3,AAGCTCGA,0.0447
4,ACTGTTAC,0.107
5,CAGTGAAA,0.144
6,ATGTCTGA,-0.0325
7,ATGTCGTG,-0.113
8,AGTTATAA,0.0215
9,CTAATTCA,0.0323
10,CGTACAAG,-0.105
11,CGCATGTA,-0.128
12,ACCGCCAG,0.00975
13,GAAAGTAA,0.014
14,AAGTGACG,-0.00882
15,ACATCGGT,-0.157
16,AAGAGCAA,-0.0829
17,CCCATAGA,-0.0678
18,GTGCGCAC,0.15
19,CGCTAAAA,0.0258
20,AATGACAT,0.149
21,TAAAGTAA,0.153
22,ACCTCAAG,0.00049
23,CATTGAAC,0.0943
24,CTTGACCC,-0.107
25,AGATCAGG,-0.207

# 34 neighbouring entries already listed, for reference:
row,Sequence,PBM E-score
17,GTCCTCAA,-0.026
18,AATTCTGA,0.0664
19,CGGGTCCC,-0.337
20,GGTTTGGA,0.075
21,CATATTAA,0.275
22,ACAGCCGG,0.154
23,ACCAAGCA,0.0042
24,ACCGCCTA,-0.033
25,ACAGCACC,-0.189
1,AGTTATGC,0.199
2,CCATTTTC,0.108
3,AAGCTCGA,0.0447
4,ACTGTTAC,0.107
5,CAGTGAAA,0.144
6,ATGTCTGA,-0.0325
7,ATGTCGTG,-0.113
8,AGTTATAA,0.0215
9,CTAATTCA,0.0323
10,CGTACAAG,-0.105
11,CGCATGTA,-0.128
12,ACCGCCAG,0.00975
13,GAAAGTAA,0.014
14,AAGTGACG,-0.00882
15,ACATCGGT,-0.157
16,AAGAGCAA,-0.0829
17,CCCATAGA,-0.0678
18,GTGCGCAC,0.15
19,CGCTAAAA,0.0258
20,AATGACAT,0.149
21,TAAAGTAA,0.153
22,ACCTCAAG,0.00049
23,CATTGAAC,0.0943
24,CTTGACCC,-0.107
25,AGATCAGG,-0.207

# Following part

row,Sequence,PBM E-score
1,GTTCTATA,0.103
2,CTTCATGC,0.011
3,AGCGTCAC,-0.173
4,GAGTCGAA,0.0501
5,ATGATTCC,0.21
6,CCCCCCTA,-0.378
7,CGCATATA,-0.0438
8,GGCGCGTA,-0.042
9,GATATTCC,0.0678
10,TATGCACA,0.154
11,ACTTTACC,0.159
12,TGGGATAA,0.0119
13,TCCTAGGA,-0.0366
14,CCTGATAG,-0.0617
15,ATCGGTCC,-0.118
16,GTCTCGGA,-0.0676
17,AGGCTTGC,-0.244
18,AGAGCTCG,-0.0777
19,CTTCAGGA,-0.0963
20,AGTCAAAA,-0.00519
21,CCAGCATA,0.0172
22,ACACTTCA,0.0375
